Record: PubChem BioAssay AID686938 (Drosophila RNAi Screening Center, 2013)

Screen: 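Looking for CRAC channel components and the factors controlling them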 (primary screen)
Cells: Drosophila S2R+ cells
Reagents: long dsRNA against Drosophila genes, about 0.25 µg dsRNA per well, roughly 10,000 cells
Timing: 5 days of knock-down before the calcium assay
Challenge: thapsigargin (SERCA pump blocker) to empty calcium stores; entry signal taken 4 min after adding it
Detection: 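Per-well fluo-4 fluorescence in two replicates, unnormalised, measured in resting cells and 4 min after store depletion by the SERCA blocker thapsigargin; ratio of the two present in few wells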
Reading the numbers: calcium entry signal: higher = stronger calcium signal after store depletion; resting calcium signal: higher = higher resting calcium signal
Active means: 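Called when the plate z-score of the entry-to-rest ratio, mean of duplicates, falls below −3; wells with low overall dye signal (Fmax z below −2) or more than five off-targets excluded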
Meaning of the calls: active = strongly reduced calcium entry; inactive = no strong reduction
The screen tested about 23,000 reagents; this is an unselected part of those with a known target gene and a result. In the full data, 75 (0.33%) are marked active. 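Raw plate signals without normalisation; calls rest on plate z-scores that were not deposited; ratio present for only 364 wells.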 The numbers tell different reagents against one gene apart. The record does not give: the dose of the treatment.

gene knocked down | dsRNA no. | calcium entry signal, replicate 1 (fluorescence units) | calcium entry signal, replicate 2 (fluorescence units) | resting calcium signal, replicate 1 (fluorescence units) | resting calcium signal, replicate 2 (fluorescence units) | call
CG31178 | 1 | 3.98e7 | 4.80e7 | 4.60e7 | 2.07e7 | inactive
eEF1delta | 1 | 4.03e7 | – | 1.94e7 | – | inactive
CG32104 | 1 | 3.03e7 | 2.62e7 | 1.59e7 | 1.35e7 | inactive
CG32104 | 2 | 2.98e7 | 4.01e7 | 1.60e7 | 1.93e7 | inactive
CG1236 | 1 | 3.75e7 | 4.31e7 | 1.66e7 | 2.06e7 | inactive
CG11790 | 1 | 4.66e7 | 4.66e7 | 1.93e7 | 1.77e7 | inactive
CG7798 | 1 | 4.62e7 | 4.01e7 | 1.87e7 | 1.85e7 | inactive
TfAP-2 | 1 | 3.15e7 | 4.89e7 | 1.50e7 | 2.12e7 | inactive
CG9444 | 1 | 3.44e7 | 3.51e7 | 1.80e7 | 1.78e7 | inactive
FoxL1 | 1 | 3.75e7 | 4.33e7 | 1.86e7 | 2.00e7 | inactive
cer | 1 | 4.64e7 | 5.37e7 | 2.08e7 | 2.53e7 | inactive
CanA1 | 1 | 4.48e7 | 6.29e7 | 2.08e7 | 2.66e7 | inactive
Stacl | 1 | 4.74e7 | 4.62e7 | 3.20e7 | 2.45e7 | inactive
Stacl | 2 | 3.84e7 | 3.50e7 | 1.97e7 | 1.63e7 | inactive
Stacl | 3 | 4.08e7 | 3.59e7 | 2.04e7 | 1.66e7 | inactive
Stacl | 4 | 3.77e7 | 3.53e7 | 1.93e7 | 1.65e7 | inactive
Stacl | 5 | 1.95e7 | 2.61e7 | 1.24e7 | 1.27e7 | inactive
Stacl | 6 | 5.18e7 | 3.33e7 | 2.49e7 | 1.43e7 | inactive
Stacl | 7 | 6.51e7 | 2.24e7 | 2.80e7 | 1.07e7 | inactive
Dpy-30L2 | 1 | 4.27e7 | 4.80e7 | 2.10e7 | 2.24e7 | inactive
S2P | 1 | 3.16e7 | 3.81e7 | 1.65e7 | 1.67e7 | inactive
Dlip2 | 1 | 3.13e7 | 6.15e7 | 1.59e7 | 2.62e7 | inactive
Fie | 1 | 5.14e7 | 3.62e7 | 3.26e7 | 1.58e7 | inactive
raptor | 1 | 2.69e7 | 3.35e7 | 1.53e7 | 1.92e7 | inactive
Cpr49Ah | 1 | 2.82e7 | 4.25e7 | 1.57e7 | 2.13e7 | inactive
CG32102 | 1 | 2.89e7 | 6.75e7 | 1.40e7 | 2.92e7 | inactive
kek1 | 1 | 5.33e7 | 3.25e7 | 2.31e7 | 1.62e7 | inactive
Cow | 1 | 3.64e7 | 2.19e7 | 1.80e7 | 1.14e7 | inactive
Cow | 2 | 4.72e7 | 5.10e7 | 2.31e7 | 2.17e7 | inactive
Rsf1 | 1 | 3.36e7 | 4.94e7 | 1.92e7 | 2.73e7 | inactive
Rsf1 | 2 | 3.14e7 | 4.73e7 | 1.60e7 | 2.58e7 | inactive
mRpL28 | 1 | 3.71e7 | 3.91e7 | 1.65e7 | 1.52e7 | inactive
Cpr76Bd | 1 | 3.47e7 | 5.38e7 | 1.57e7 | 2.19e7 | inactive
Fuca | 1 | 4.23e7 | 3.96e7 | 2.10e7 | 1.72e7 | inactive
mrn | 1 | 3.23e7 | 3.81e7 | 1.55e7 | 3.01e7 | inactive
robo2 | 1 | 3.18e7 | 3.49e7 | 1.59e7 | 1.76e7 | inactive
robo2 | 2 | 3.54e7 | 3.59e7 | 1.66e7 | 1.74e7 | inactive
robo2 | 3 | 3.37e7 | 3.92e7 | 1.64e7 | 1.82e7 | inactive
robo2 | 4 | 5.42e7 | – | 3.00e7 | – | inactive
CG2225 | 1 | 3.66e7 | – | 1.77e7 | – | inactive
CG2225 | 2 | 2.67e7 | 4.09e7 | 1.50e7 | 1.80e7 | inactive
Slu7 | 1 | 1.82e7 | 2.42e7 | 1.32e7 | 1.48e7 | inactive
CG15676 | 1 | 4.39e7 | 4.05e7 | 2.04e7 | 1.84e7 | inactive
CG10877 | 1 | 3.89e7 | 4.06e7 | 4.16e7 | 1.94e7 | inactive
bib | 1 | 4.45e7 | – | 2.25e7 | – | inactive
CG8301 | 1 | 2.83e7 | 3.05e7 | 1.37e7 | 1.63e7 | inactive
esg | 1 | 4.45e7 | 3.00e7 | 2.18e7 | 1.34e7 | inactive
CG31516 | 1 | 3.13e7 | 3.56e7 | 1.70e7 | 1.56e7 | inactive
CG5402 | 1 | 2.19e7 | 4.63e7 | 1.25e7 | 2.03e7 | inactive
C3G | 1 | 3.13e7 | 3.55e7 | 1.43e7 | 1.51e7 | inactive
C3G | 2 | 3.58e7 | 4.62e7 | 1.63e7 | 1.93e7 | inactive
C3G | 3 | 3.89e7 | 4.30e7 | 1.90e7 | 2.27e7 | inactive
C3G | 4 | 5.73e7 | 2.51e7 | 2.69e7 | 1.06e7 | inactive
pippin | 1 | 2.70e7 | – | 1.36e7 | – | inactive
CG11878 | 1 | 3.74e7 | 3.86e7 | 2.09e7 | 1.51e7 | inactive
EloB | 1 | 2.56e7 | 3.94e7 | 1.61e7 | 5.91e7 | inactive
Sdc | 1 | 4.43e7 | 5.85e7 | 2.18e7 | 2.31e7 | inactive
mtt | 1 | 2.34e7 | 5.31e7 | 1.34e7 | 5.04e7 | inactive
mtt | 2 | 2.11e7 | 5.85e7 | 1.20e7 | 5.56e7 | inactive
mtt | 3 | 5.49e7 | 3.28e7 | 2.47e7 | 1.58e7 | inactive
mtt | 4 | 5.58e7 | 4.44e7 | 2.51e7 | 1.81e7 | inactive
CG11131 | 1 | 2.31e7 | 3.79e7 | 1.09e7 | 1.58e7 | inactive
CG11131 | 2 | 2.62e7 | 4.37e7 | 1.35e7 | 1.78e7 | inactive
CG14763 | 1 | 3.08e7 | 2.83e7 | 1.38e7 | 1.32e7 | inactive
Tak1 | 1 | 4.02e7 | 4.01e7 | 1.93e7 | 1.92e7 | inactive
Tak1 | 2 | 5.63e7 | 4.50e7 | 2.66e7 | 1.91e7 | inactive
Tak1 | 3 | 5.38e7 | 5.08e7 | 2.34e7 | 2.07e7 | inactive
E(spl)m5-HLH | 1 | 2.92e7 | 4.87e7 | 1.58e7 | 2.21e7 | inactive
Myd88 | 1 | 3.15e7 | 2.73e7 | 1.38e7 | 1.38e7 | inactive
pita | 1 | 1.90e7 | 3.46e7 | 1.06e7 | 1.43e7 | inactive
pita | 2 | 4.30e7 | – | 2.12e7 | – | inactive
CG8671 | 1 | 4.09e7 | 5.08e7 | 2.10e7 | 2.29e7 | inactive
CG8671 | 2 | 3.77e7 | 5.36e7 | 1.90e7 | 2.40e7 | inactive
CG9921 | 1 | 2.54e7 | 2.62e7 | 1.40e7 | 1.48e7 | inactive
Ir56b | 1 | 4.67e7 | 5.94e7 | 2.11e7 | 2.65e7 | inactive

Part of the list above, reformatted.
| gene knocked down | dsRNA no. | calcium entry signal, replicate 1 (fluorescence units) | calcium entry signal, replicate 2 (fluorescence units) | resting calcium signal, replicate 1 (fluorescence units) | resting calcium signal, replicate 2 (fluorescence units) | call |
| --- | --- | --- | --- | --- | --- | --- |
| robo2 | 1 | 3.18e7 | 3.49e7 | 1.59e7 | 1.76e7 | inactive |
| robo2 | 2 | 3.54e7 | 3.59e7 | 1.66e7 | 1.74e7 | inactive |
| robo2 | 3 | 3.37e7 | 3.92e7 | 1.64e7 | 1.82e7 | inactive |
| robo2 | 4 | 5.42e7 | – | 3.00e7 | – | inactive |
| CG2225 | 1 | 3.66e7 | – | 1.77e7 | – | inactive |
| CG2225 | 2 | 2.67e7 | 4.09e7 | 1.50e7 | 1.80e7 | inactive |
| Slu7 | 1 | 1.82e7 | 2.42e7 | 1.32e7 | 1.48e7 | inactive |
| CG15676 | 1 | 4.39e7 | 4.05e7 | 2.04e7 | 1.84e7 | inactive |
| CG10877 | 1 | 3.89e7 | 4.06e7 | 4.16e7 | 1.94e7 | inactive |
| bib | 1 | 4.45e7 | – | 2.25e7 | – | inactive |
